# Test results: PubChem BioAssay AID493014 (National Center for Advancing Translational Sciences (NCATS), 2011)
# About 170 (0.05%) of roughly 340,000 compounds were called active. The inconclusive results got no clear call from the source; some entries with a clear call stand among them for comparison. The call rests on the fitted dose curve; in most records, active means well fitted inhibition curve with a large enough effect in the signal ratio, with a control signal flat (not every such curve was filed as active); inconclusive means small, poorly fitted or top-dose-only effect, or effect the other way, or a change in a side signal; inactive means flat fitted curve, though single readings scatter; the % refers to the signal ratio. Where the call is inconclusive, the potency comes from a doubtful curve fit.
# Assay: qHTS Assay to Find Inhibitors of Chronic Active B-Cell Receptor Signaling;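 on activity change, negative = inhibition: plate controls were basal doxycycline-induced cells for no effect and cells given 10 µM MG132 for full effect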
# Conditions: ABC-DLBCL IkBa-CBG/CBR reporter, luminescence ratio (green luciferase fused to IkBa over red control in TMD8 lymphoma cells), 4 h; activity change, negative = inhibition: at 46.1 µM (top of the series)
# Outline: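 Concentration-response series (up to 46 uM) were applied to TMD8 dual-reporter cells for 4 h at 37C with doxycycline. Green/red ratio, after filter-overlap correction, defined %Activity; red signal alone was normalised to basal cells and zero luminescence.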
# Potency means the concentration at half of the fitted maximal effect.
Structure (SMILES),"activity change, negative = inhibition",Potency
O=C1/C(=C/c2cccs2)COc2ccccc21,inactive,
COc1ccc(NC(=O)c2cccc(S(=O)(=O)N3CCCCC3)c2)c(OC)c1,inconclusive: -5.78%,
CC1CCOC2(O1)C(=O)N(CN1CCN(c3ccccc3F)CC1)c1ccccc12 (stereo not given),,"inconclusive: 35.5 µM [falling, single point]"
CCOC(=O)C(C(=O)OCC)c1cc(Br)c2noc3c2c1C(=O)c1ccccc1-3,inconclusive: 10.4%,
COc1cc(NC(=O)c2ccc(Br)cc2)c(OC)cc1NC(=O)c1ccccc1,inactive,
O=C(CCCSc1ccccc1)Nc1nc(-c2ccccn2)cs1,inactive,
Cc1cc(C=NCCO)c(C)n1-c1cc(Cl)ccc1Cl,,"inconclusive: 11.2 µM [falling, partial curve]"
CCOC(=O)c1cc2c(ccc3ccccc32)oc1=O,inconclusive: 28.5%,
C=CCSc1nnc(N2C(=O)C(O)=C(C(=O)c3ccco3)C2c2ccc(F)cc2)s1 (stereo not given),inconclusive: 5.35%,
Cn1c(=O)c(C(=O)COC(=O)c2cc(-c3ccccc3)nc3ccccc23)c(N)n(Cc2ccccc2)c1=O,inconclusive: 2.36%,
CC(CN1CCCCC1)OC(=O)c1ccccc1Cl (stereo not given),inconclusive: 17.8%,
CC(C)CCn1c(O)c(N=Nc2ccccn2)c2ccccc21,inconclusive: 15.2%,
CN(C)NC(=O)c1ccsc1NC(=O)c1ccc(S(=O)(=O)N(C)C)cc1,inconclusive: -7.69%,
Cn1cc([N+](=O)[O-])c(C(=O)Nc2ccc(-c3nc4ccccc4[nH]3)cc2)n1,inconclusive: 12.1%,
COc1ccc(OC)c(/C=C/C(=O)Nc2cccc(S(=O)(=O)N3CCCC3)c2)c1,inactive,
COc1ccccc1NC(c1cccnc1)c1ccc2cccnc2c1O (stereo not given),,"inconclusive: 29.1 µM [falling, single point]"
CN1C2=CC=CC=CC2=[N+](C)C12C=CC(=[N+]([O-])[O-])C=C2[N+](=O)[O-] (stereo not given),inconclusive: 2.47%,
O=C(COC(=O)CCCN1C(=O)c2cccc3cccc(c23)C1=O)NC1CCS(=O)(=O)C1 (stereo not given),,"inconclusive: 0.92 µM [rising, full curve]"
Nc1cc(S(=O)(=O)N2CCOCC2)ccc1N1CCCCC1,inconclusive: 4.8%,
c1ccc(CSc2nc3ncncc3[nH]2)cc1,inactive,
O=C(Cc1ccc(Cl)cc1)NC(=S)Nc1ccccc1N1CCOCC1,inconclusive: 13.9%,
Cc1nc2c3ccccc3n(Cc3ccccc3F)c2s1,inconclusive: 8.43%,
CCOCCc1nnc(N)s1,,"inconclusive: 29.1 µM [falling, single point]"
CCOC(=O)N1CCN(c2nc3ccc(C(=O)c4ccccc4)cc3n3cnnc23)CC1,inconclusive: 3.38%,
COc1ccc2ccc(O)c(CN3CCN(S(=O)(=O)c4cc([N+](=O)[O-])ccc4C)CC3)c2c1,,"inconclusive: 23.1 µM [falling, single point]"
O=C(CSC(=S)N1CCCC1)c1ccccc1,,"inconclusive: 22.4 µM [falling, partial curve]"
O=C1N[C@@H](Cc2ccccc2)COC(=O)[C@@H](Cc2ccc(F)cc2)C/C=C\C[C@@H]1CC(=O)N(CCO)Cc1ccccc1,inactive,

# Shown as tab-separated lines: 7 of the compounds above.
Structure (SMILES)	activity change, negative = inhibition	Potency
CN1C2=CC=CC=CC2=[N+](C)C12C=CC(=[N+]([O-])[O-])C=C2[N+](=O)[O-] (stereo not given)	inconclusive: 2.47%	
O=C(COC(=O)CCCN1C(=O)c2cccc3cccc(c23)C1=O)NC1CCS(=O)(=O)C1 (stereo not given)		inconclusive: 0.92 µM [rising, full curve]
Nc1cc(S(=O)(=O)N2CCOCC2)ccc1N1CCCCC1	inconclusive: 4.8%	
c1ccc(CSc2nc3ncncc3[nH]2)cc1	inactive	
O=C(Cc1ccc(Cl)cc1)NC(=S)Nc1ccccc1N1CCOCC1	inconclusive: 13.9%	
Cc1nc2c3ccccc3n(Cc3ccccc3F)c2s1	inconclusive: 8.43%	
CCOCCc1nnc(N)s1		inconclusive: 29.1 µM [falling, single point]

# Later entries.

Structure (SMILES),"activity change, negative = inhibition",Potency
COc1ccc(NC(=O)C(C)N2c3cccc4cccc(c34)S2(=O)=O)cc1 (stereo not given),,"inconclusive: 29.1 µM [falling, single point]"
C=CCN1C(=O)C(CC(=O)O)SC1=Nc1ccc(C)cc1 (stereo not given),inactive,
Cc1cccc([C@@H]2[C@@H]3C(=O)N(Cc4ccccc4)C(=O)[C@@H]3[C@]3(CC(C)C)C(=O)N(c4cccc(Br)c4)C(=O)N23)c1,inconclusive: 13.7%,
O=C(NC(=S)Nc1cccc(Cl)c1N1CCCCC1)c1cccs1,inconclusive: 28.9%,
Cc1c(C(=O)Nc2nc3ccccc3[nH]2)oc2c(Cl)cccc12,,"inconclusive: 5.17 µM [falling, full curve, poor fit]"
Cc1ccc(C)c(NC(=O)c2nnn(Cc3ccccc3C)c2N)c1,inconclusive: 0.812%,
Cc1cc(NC(=O)CSc2nc(-c3cccs3)nc3ccccc23)no1,inactive,
COc1ccc(NC(=O)N(C)C[C@H]2Oc3c(NC(=O)Cc4ccccc4)cccc3C(=O)N([C@H](C)CO)C[C@@H]2C)cc1,inconclusive: 0.496%,
COc1ccc(CN2CCN(C(=O)c3ccc(S(=O)(=O)N4CCCCCC4)cc3)CC2)cc1,inconclusive: -0.0162%,
C=COC(=O)CSc1nc(-c2cccs2)ccc1C#N,inconclusive: 8.78%,
O=C(C1CCN(S(=O)(=O)c2cnc[nH]2)CC1)N(CCc1ccccc1)Cc1ccccc1,inconclusive: 11.4%,
CCOC(=O)c1ccccc1NC(=O)c1c(O)c2ccccc2n(CC)c1=O,,"inconclusive: 0.731 µM [falling, full curve]"
COc1cccc(NC(=O)Nc2nc(-c3ccc(OC)c(OC)c3)cs2)c1,,"inconclusive: 3.55 µM [falling, single point]"
CCc1nnc(NC(=O)CSc2ncc(-c3ccccc3)n2C)s1,,"inconclusive: 31.6 µM [falling, single point]"
O=C(Nc1ccsc1C(=O)O)c1ccccc1,,"inconclusive: 22.4 µM [falling, partial curve]"
CC(C)C[C@H](N)c1nnc(S(=O)(=O)Cc2cccc(F)c2)o1,inconclusive: 11.2%,
CCNc1nc(NC(C)CC)nc(Oc2ccc(OCC)nn2)n1 (stereo not given),,"inconclusive: 1.26 µM [falling, partial curve]"
O=C(Nc1ccc(Cl)cc1)c1cc(S(=O)(=O)N2CCCc3ccccc32)ccc1F,inconclusive: 5.69%,
CCc1c(C)c2ccc(OCC(=O)OC)cc2oc1=O,inconclusive: 2.69%,
CCc1cc2c(=O)c(-c3nc4ccccc4n3C)coc2c(CN2CCOCC2)c1O,inconclusive: -9.95%,
CN1CCN(/N=C/c2nc(-c3ccccc3Cl)n3ccccc23)CC1,,"inconclusive: 23.1 µM [falling, single point]"
C/C(N)=C(/C#N)C(=O)CSc1nc2ccccc2c(=O)n1CCCO,inconclusive: -0.166%,
Cn1c(=O)n(C)c2cc(NC(=O)C(F)(F)F)ccc21,inconclusive: -0.391%,
CCOC(=O)c1c(C)[nH]c(C)c1S(=O)(=O)N1CCCC(C(=O)NCc2ccc(C)cc2)C1 (stereo not given),inconclusive: 7.03%,
CCc1ccccc1N1C(=O)N(CC(=O)c2ccc(Cl)cc2)c2ccccc2S1(=O)=O,inactive,
CCCCCc1cccnc1,inconclusive: -9.45%,
O=C(Nc1ccc(N2CCCCCC2)cc1)c1cccc(S(=O)(=O)N2CCOCC2)c1,,"inconclusive: 20.6 µM [falling, single point]"

Structure (SMILES),"activity change, negative = inhibition",Potency
CCOc1ccc(C2=C(C(=O)CC)Sc3nncn3N2C(=O)CC)cc1,,"inconclusive: 8.91 µM [falling, partial curve]"
CCC(CC)NC(=O)C1CCN(c2ccc(S(=O)(=O)N3CCOCC3)cc2[N+](=O)[O-])CC1,inconclusive: 3.87%,
C#CCSc1n[nH]c(-c2ccco2)n1,inconclusive: -3.88%,
CN(C)C(=O)NC(Nc1ccc(Cl)cc1Cl)C(Cl)(Cl)Cl (stereo not given),inactive,
CC(=O)c1ccn(S(=O)(=O)c2ccc(Cl)cc2)c1,,"inconclusive: 7.08 µM [falling, partial curve, poor fit]"
O=S(=O)(Nc1ncccn1)c1ccc(Nc2ncnc3ccccc23)cc1,inconclusive: 2.32%,
COc1ccc(CNC(=O)CN=C2NC(=O)C(c3ccccc3)(c3ccccc3)N2)cc1,inconclusive: 9.07%,
CCOc1ccc(S(=O)(=O)N2CCC(C(=O)NCc3cccnc3)CC2)cc1Cl,inactive,
COc1ccc(OCC(=O)Nc2ccccc2N2CCCCC2)cc1,,"inconclusive: 15.8 µM [falling, single point]"
COc1ccccc1Oc1nnnn1-c1ccc(C(N)=O)cc1,inactive,
COc1cccc(CNC(=O)c2ccc3c(c2)N(C)CCS3)c1OC,,"inconclusive: 11.2 µM [falling, partial curve, poor fit]"
CCOC(=O)c1ccc(CC(=O)c2ccc(O)c(O)c2O)o1,inactive,
CC(C)Oc1ccc(C(=O)Nc2nnc(C3=COCCO3)o2)cc1,inactive,
N#C/C(=C/c1ccc(-c2ccccc2[N+](=O)[O-])o1)C(N)=O,inactive,
CCn1c(C)cc(C(=O)CSc2nnc(-c3ccco3)o2)c1C,inactive,
O=C(O)c1ccc(N2C(=O)c3cccc4c(C(=O)O)ccc(c34)C2=O)cc1,inactive,
Cc1ccc(S(=O)(=O)CCC(=O)OCC(=O)Nc2cc(C)on2)cc1,inconclusive: 0.117%,
Cc1ccc2c(c1)-n1c(nc3ccccc3c1=O)C(Cc1ccc(O)cc1)NC2=O (stereo not given),inconclusive: -2.91%,
O=C(c1cccnc1NCc1ccccc1)N1CCOCC1,inconclusive: 4%,
Cc1cc(C)c(C#N)c(OCc2ccc(Cl)nc2)n1,inconclusive: -0.876%,
Clc1ccc(N=c2ssnc2Cl)cc1,,"inconclusive: 20.6 µM [falling, single point]"
CCc1nc(SCC(=O)Nc2ccc3c(c2)OCCO3)c2oc3ccccc3c2n1,inactive,
CCCc1cc(=O)[nH]c(SCC(=O)N2N=C(c3ccc(Cl)cc3)CC2c2ccco2)n1 (stereo not given),inactive,
COc1ccc2c(c1)C(c1ccc(C)o1)=NNC(c1ccccc1)=N2,,"inconclusive: 12.6 µM [falling, partial curve]"
COC(=O)c1ccccc1NC(=O)NCCc1ccc(OC)c(OC)c1,,"inconclusive: 22.4 µM [falling, partial curve, poor fit]"
C=CCn1c(-c2sc3nc(C)cc(C)c3c2N)n[nH]c1=S,inconclusive: 13.9%,
